Experimental data as given in paper PMC9500956, “In Vitro Characterization of the Physical Interactions between the Long Noncoding RNA TERRA and the Telomeric Proteins TRF1 and TRF2”.

Chains of the proteins cited; added tags and fusions are not shown. Lines headed by an entry give the natural chain unless they say otherwise; changes in a name come on top.
UniProt O35144: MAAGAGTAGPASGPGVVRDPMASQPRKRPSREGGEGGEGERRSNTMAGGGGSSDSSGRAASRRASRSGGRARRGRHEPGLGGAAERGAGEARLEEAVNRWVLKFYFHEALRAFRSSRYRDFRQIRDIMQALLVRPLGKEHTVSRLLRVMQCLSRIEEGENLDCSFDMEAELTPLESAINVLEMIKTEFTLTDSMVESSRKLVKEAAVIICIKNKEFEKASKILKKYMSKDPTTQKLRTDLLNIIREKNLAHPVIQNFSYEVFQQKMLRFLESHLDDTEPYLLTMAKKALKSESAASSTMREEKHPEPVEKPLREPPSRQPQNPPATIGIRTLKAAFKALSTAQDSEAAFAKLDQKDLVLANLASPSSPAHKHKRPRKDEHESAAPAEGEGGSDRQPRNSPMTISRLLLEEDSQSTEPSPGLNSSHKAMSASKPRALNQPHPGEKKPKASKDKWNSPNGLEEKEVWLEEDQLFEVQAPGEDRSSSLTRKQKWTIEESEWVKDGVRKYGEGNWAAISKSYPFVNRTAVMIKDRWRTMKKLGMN
UniProt P70371: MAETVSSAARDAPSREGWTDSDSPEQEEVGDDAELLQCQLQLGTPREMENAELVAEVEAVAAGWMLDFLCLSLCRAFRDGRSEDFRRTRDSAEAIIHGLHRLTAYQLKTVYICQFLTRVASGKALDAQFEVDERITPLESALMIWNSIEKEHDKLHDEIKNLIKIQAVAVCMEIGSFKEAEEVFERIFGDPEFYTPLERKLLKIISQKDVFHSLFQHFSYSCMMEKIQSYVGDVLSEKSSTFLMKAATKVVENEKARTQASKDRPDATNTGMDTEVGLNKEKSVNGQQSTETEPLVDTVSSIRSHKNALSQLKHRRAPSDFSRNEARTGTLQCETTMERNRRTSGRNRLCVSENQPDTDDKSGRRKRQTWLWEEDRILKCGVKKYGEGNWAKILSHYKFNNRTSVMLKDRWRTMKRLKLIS

What was measured:
Assay in all cases: EMSA
GST-mB (mouse) = GST-mB (mouse) (UniProt O35144); details: E. coli tRNA; RNA EMSA: 50 mM HEPES pH 8, 1 mM DTT, 100 mM NaCl, 0.01% BSA, 2% glycerol, 50 ng/uL E. coli tRNA, 0.25 nM RNA, 20 min on ice then 10 min 25 C; recombinant protein; protein details: N-terminal GST; label: 5'-32P
GST = details: E. coli tRNA; RNA EMSA: 50 mM HEPES pH 8, 1 mM DTT, 100 mM NaCl, 0.01% BSA, 2% glycerol, 50 ng/uL E. coli tRNA, 0.25 nM RNA, 20 min on ice then 10 min 25 C; recombinant protein; label: 5'-32P
GST-mBL (mouse) = GST-mBL (mouse) (UniProt O35144); details: E. coli tRNA; RNA EMSA: 50 mM HEPES pH 8, 1 mM DTT, 100 mM NaCl, 0.01% BSA, 2% glycerol, 50 ng/uL E. coli tRNA, 0.25 nM RNA, 20 min on ice then 10 min 25 C; recombinant protein; protein details: N-terminal GST; label: 5'-32P
GST-mA (mouse) = GST-mA (mouse) (UniProt P70371); details: E. coli tRNA; RNA EMSA: 50 mM HEPES pH 8, 1 mM DTT, 100 mM NaCl, 0.01% BSA, 2% glycerol, 50 ng/uL E. coli tRNA, 0.25 nM RNA, 20 min on ice then 10 min 25 C; recombinant protein; protein details: N-terminal GST; label: 5'-32P

UUAGGGUUAGGGUUAGGGUUAGGGUUAGGG [TERRA (UUAGGG)5]
binding result (GST-mB (mouse)): binds | binding result (GST): no binding | binding result (GST-mBL (mouse)): binds | binding result (GST-mA (mouse)): no binding

Construct, isoform or probe ends are uncertain for at least one entry. For some of these results: Negatives hold for the conditions tested.
